Source: the supplement of paper PMC8728848
Some of the results follow.

How the values were obtained:
Assay in all cases: glycan array binding signal (z-score within array); higher = stronger binding
Conditions in all cases: glycan notation: IUPAC condensed, linker removed
[1] = target: Fuc(a1-3)GlcNAc
How it was run: (§1)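 From the Consortium for Functional Glycomics database, 3228 arrays were curated, keeping only those whose protein sequence was available. Binding is given as a within-array Z-score averaged across arrays sharing a protein sequence and across linkers. Negative Z-scores can be read as non-binding.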

[2] = target: Fuc(a1-3)[Gal(b1-4)]Glc6S
How it was run: as §1

[3] = target: Fuc(a1-3)[Gal(b1-4)]GlcNAc
How it was run: as §1

[4] = target: Fuc(a1-3)[Gal(b1-4)]GlcNAc(b1-2)Man
How it was run: as §1

[5] = target: Fuc(a1-3)[Gal(b1-4)]GlcNAc(b1-2)Man(a1-3)[Fuc(a1-3)[Gal(b1-4)]GlcNAc(b1-2)Man(a1-6)]Man(b1-4)GlcNAc(b1-4)GlcNAc
How it was run: as §1

[6] = target: Fuc(a1-3)[Gal(b1-4)]GlcNAc(b1-2)Man(a1-3)[Fuc(a1-3)[Gal(b1-4)]GlcNAc(b1-2)Man(a1-6)]Man(b1-4)GlcNAc(b1-4)[Fuc(a1-6)]GlcNAc
How it was run: as §1

[7] = target: Fuc(a1-3)[Gal(b1-4)]GlcNAc(b1-3)Gal(b1-3)[Fuc(a1-4)]GlcNAc
How it was run: as §1

[8] = target: Fuc(a1-3)[Gal(b1-4)]GlcNAc(b1-3)Gal(b1-4)[Fuc(a1-3)]GlcNAc
How it was run: as §1

[9] = target: Fuc(a1-3)[Gal(b1-4)]GlcNAc(b1-3)Gal(b1-4)[Fuc(a1-3)]GlcNAc(b1-3)Gal(b1-4)[Fuc(a1-3)]GlcNAc
How it was run: as §1

[10] = target: Fuc(a1-3)[Gal(b1-4)]GlcNAc(b1-3)GalNAc
How it was run: as §1

[11] = target: Fuc(a1-3)[Gal(b1-4)]GlcNAc(b1-6)GalNAc
How it was run: as §1

[12] = target: Fuc(a1-3)[Gal(b1-4)]GlcNAc(b1-6)[Gal(b1-3)GlcNAc(b1-3)]Gal(b1-4)Glc
How it was run: as §1

[13] = target: Fuc(a1-3)[Gal(b1-4)]GlcNAc6S
How it was run: as §1

[14] = target: Fuc(a1-3)[Gal3S(b1-4)]Glc
How it was run: as §1

[15] = target: Fuc(a1-3)[Gal3S(b1-4)]GlcNAc
How it was run: as §1

[16] = target: Fuc(a1-3)[Gal3S(b1-4)]GlcNAc6S
How it was run: as §1

[17] = target: Fuc(a1-3)[GalNAc(b1-4)]GlcNAc
How it was run: as §1

[18] = target: Fuc(a1-3)[GalNAc(b1-4)]GlcNAc6S
How it was run: as §1

[19] = target: Fuc(a1-4)GlcNAc
How it was run: as §1

[20] = target: Fuc(b1-3)GlcNAc
How it was run: as §1

[21] = target: Gal(a1-2)Gal
How it was run: as §1

[22] = target: Gal(a1-3)Gal
How it was run: as §1

[23] = target: Gal(a1-3)Gal(b1-3)GlcNAc
How it was run: as §1

[24] = target: Gal(a1-3)Gal(b1-3)GlcNAc(b1-2)Man
How it was run: as §1

[25] = target: Gal(a1-3)Gal(b1-3)GlcNAc(b1-2)Man(a1-3)[Gal(a1-3)Gal(b1-3)GlcNAc(b1-2)Man(a1-6)]Man(b1-4)GlcNAc(b1-4)GlcNAc
How it was run: as §1

[26] = target: Gal(a1-3)Gal(b1-3)GlcNAc(b1-3)GalNAc
How it was run: as §1

[27] = target: Gal(a1-3)Gal(b1-3)GlcNAc(b1-6)GalNAc
How it was run: as §1

[28] = target: Gal(a1-3)Gal(b1-3)[Fuc(a1-4)]GlcNAc(b1-2)Man(a1-3)[Gal(a1-3)Gal(b1-3)[Fuc(a1-4)]GlcNAc(b1-2)Man(a1-6)]Man(b1-4)GlcNAc(b1-4)GlcNAc
How it was run: as §1

[29] = target: Gal(a1-3)Gal(b1-4)Glc
How it was run: as §1

[30] = target: Gal(a1-3)Gal(b1-4)GlcNAc
How it was run: as §1

[31] = target: Gal(a1-3)Gal(b1-4)GlcNAc(b1-2)Man
How it was run: as §1

[32] = target: Gal(a1-3)Gal(b1-4)GlcNAc(b1-2)Man(a1-3)[Gal(a1-3)Gal(b1-4)GlcNAc(b1-2)Man(a1-6)]Man(b1-4)GlcNAc(b1-4)GlcNAc
How it was run: as §1

[33] = target: Gal(a1-3)Gal(b1-4)GlcNAc(b1-3)GalNAc
How it was run: as §1

[34] = target: Gal(a1-3)Gal(b1-4)GlcNAc(b1-6)GalNAc
How it was run: as §1

[35] = target: Gal(a1-3)Gal(b1-4)[Fuc(a1-3)]GlcNAc
How it was run: as §1

[36] = target: Gal(a1-3)Gal(b1-4)[Fuc(a1-3)]GlcNAc(b1-2)Man(a1-3)[Gal(a1-3)Gal(b1-4)[Fuc(a1-3)]GlcNAc(b1-2)Man(a1-6)]Man(b1-4)GlcNAc(b1-4)GlcNAc
How it was run: as §1

[37] = target: Gal(a1-3)GalNAc
How it was run: as §1

[38] = target: Gal(a1-3)[Gal(a1-4)]Gal(b1-4)GlcNAc
How it was run: as §1

[39] = target: Gal(a1-4)Gal(b1-3)GlcNAc(b1-2)Man(a1-3)[Gal(a1-4)Gal(b1-3)GlcNAc(b1-2)Man(a1-6)]Man(b1-4)GlcNAc(b1-4)GlcNAc
How it was run: as §1

[40] = target: Gal(a1-4)Gal(b1-4)Glc
How it was run: as §1

[41] = target: Gal(a1-4)Gal(b1-4)GlcNAc
How it was run: as §1

[42] = target: Gal(a1-4)Gal(b1-4)GlcNAc(b1-2)Man(a1-3)[Gal(a1-4)Gal(b1-4)GlcNAc(b1-2)Man(a1-6)]Man(b1-4)GlcNAc(b1-4)GlcNAc
How it was run: as §1

[43] = target: Gal(a1-4)Gal(b1-4)GlcNAc(b1-3)Gal(b1-4)Glc
How it was run: as §1

[44] = target: Gal(a1-4)GlcNAc
How it was run: as §1

[45] = target: Gal(a1-6)Glc
How it was run: as §1

B1: Mermaid1 (Stilbonema majum) (protein)
chain: MGSSHHHHHHSSGLVPRGSHMAASGWLRSPQGTVVKLYRRSLSWSKADEFCKDVDGRLVVDRTADMHLFLIKNVLKEKKSRVWVGLRRTAPHSRTWIWSDGTRQNEDDLDANLWLRDEPNDAAGEEECALFMYSPWEKAWGLNDYLCRGGCRSYQFICEKWIR
In the case of B1, the “glycan array binding signal (z-score)” value [1] is reported as -0.128, the “glycan array binding signal (z-score)” value [2] is reported as 0.27 and the “glycan array binding signal (z-score)” value [3] is reported as -0.248. For the same binder, the “glycan array binding signal (z-score)” value [4] was -0.346, the “glycan array binding signal (z-score)” value [5] was -0.717 and the “glycan array binding signal (z-score)” value [6] was -0.538. The “glycan array binding signal (z-score)” value [7] was -0.602, the “glycan array binding signal (z-score)” value [8] was 0.618 and the “glycan array binding signal (z-score)” value [9] was -0.381. For the same binder, the “glycan array binding signal (z-score)” value [10] was -0.32, the “glycan array binding signal (z-score)” value [11] was 1.29 and the “glycan array binding signal (z-score)” value [12] was -0.676. For the same binder, the “glycan array binding signal (z-score)” value [13] was 2.01, the “glycan array binding signal (z-score)” value [14] was 0.419 and the “glycan array binding signal (z-score)” value [15] was 0.016. For the same binder, the “glycan array binding signal (z-score)” value [16] was -0.107, the “glycan array binding signal (z-score)” value [17] was 0.394 and the “glycan array binding signal (z-score)” value [18] was -0.336. The “glycan array binding signal (z-score)” value [19] was -0.647, the “glycan array binding signal (z-score)” value [20] was 0.5 and the “glycan array binding signal (z-score)” value [21] was 0.245. The “glycan array binding signal (z-score)” value [22] was -0.309, the “glycan array binding signal (z-score)” value [23] was 0.118 and the “glycan array binding signal (z-score)” value [24] was -0.215. For the same binder, the “glycan array binding signal (z-score)” value [25] was 1.25, the “glycan array binding signal (z-score)” value [26] was -0.081 and the “glycan array binding signal (z-score)” value [27] was -0.289. For the same binder, the “glycan array binding signal (z-score)” value [28] was 2.49, the “glycan array binding signal (z-score)” value [29] was -0.784 and the “glycan array binding signal (z-score)” value [30] was -0.824. For the same binder, the “glycan array binding signal (z-score)” value [31] was -0.331, the “glycan array binding signal (z-score)” value [32] was 0.543 and the “glycan array binding signal (z-score)” value [33] was -0.449. For the same binder, the “glycan array binding signal (z-score)” value [34] was -0.176, the “glycan array binding signal (z-score)” value [35] was -0.276 and the “glycan array binding signal (z-score)” value [36] was 1.45. The “glycan array binding signal (z-score)” value [37] was -0.799, the “glycan array binding signal (z-score)” value [38] was 1.13 and the “glycan array binding signal (z-score)” value [39] was -0.121. For the same binder, the “glycan array binding signal (z-score)” value [40] was -0.565, the “glycan array binding signal (z-score)” value [41] was -0.207 and the “glycan array binding signal (z-score)” value [42] was 1.14. For the same binder, the “glycan array binding signal (z-score)” value [43] was -0.325, the “glycan array binding signal (z-score)” value [44] was -0.618 and the “glycan array binding signal (z-score)” value [45] was 0.263.
